Literature values as cited in patent US11045561B2, “Rotaxane-type probe for molecular imaging” (Rhode Island Council on Postsecondary Education, priority 2017, dated 2021).
At least one compound was matched to its structure with a doubt left.

Settings: cited from earlier work

| Compound | ka for reversibly binding xenon [kM^−1] | ka for binding xenon [M⁻¹] |
| --- | --- | --- |
| COc1cc2c3cc1OCCOc1cc4c(cc1OC)Cc1cc5c(OC)cc1Cc1cc(c(OC)cc1C4)OCCOc1cc(c(cc1OC)C3)Cc1cc(OC)c(cc1C2)OCCO5 [Cryptophane-A] | 3 | – |
| O=C1N2CN3C(=O)N4CN5C(=O)N6CN7C(=O)N8CN9C(=O)N%10CN%11C(=O)N%12CN1C1C2N2CN%13C(=O)N(CN%14C(=O)N(CN%15C(=O)N(CN%16C(=O)N(CN%17C(=O)N(CN1C2=O)C%12C%11%17)C%10C9%16)C8C7%15)C6C5%14)C4C3%13 (centres unmarked) [CB6, cucurbit[6]uril] | – | 200 |
